Reference: US20100233154A1, “TARGETED BINDING AGENTS DIRECTED TO HEPARANASE AND USES THEREOF 463” (MedImmune Limited, priority 2008, published 2010)
These are yes or no findings as the source states them, for the method shown. Some binding calls cover weakened binding; strength is not graded here.

T1: murine cell surface heparanase on B16F10 AP3 murine melanoma cells (murine) (UniProt Q6YGZ1)
T1 sequence (looked up): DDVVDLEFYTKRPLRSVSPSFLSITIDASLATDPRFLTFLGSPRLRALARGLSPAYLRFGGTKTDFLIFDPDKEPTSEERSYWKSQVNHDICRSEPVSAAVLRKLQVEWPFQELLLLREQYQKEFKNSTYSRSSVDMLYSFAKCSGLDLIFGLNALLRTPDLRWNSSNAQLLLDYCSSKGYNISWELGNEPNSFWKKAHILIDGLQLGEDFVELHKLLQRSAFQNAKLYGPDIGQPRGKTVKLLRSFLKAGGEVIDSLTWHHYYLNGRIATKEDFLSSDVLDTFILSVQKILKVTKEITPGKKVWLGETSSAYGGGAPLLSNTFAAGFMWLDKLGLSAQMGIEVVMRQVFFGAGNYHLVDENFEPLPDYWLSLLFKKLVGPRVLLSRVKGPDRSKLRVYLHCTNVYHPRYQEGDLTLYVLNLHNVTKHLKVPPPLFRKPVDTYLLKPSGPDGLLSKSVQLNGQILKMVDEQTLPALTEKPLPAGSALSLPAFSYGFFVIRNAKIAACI

T2: human cell surface heparanase on human tumour cells (human) (UniProt Q9Y251)
T2 sequence (looked up): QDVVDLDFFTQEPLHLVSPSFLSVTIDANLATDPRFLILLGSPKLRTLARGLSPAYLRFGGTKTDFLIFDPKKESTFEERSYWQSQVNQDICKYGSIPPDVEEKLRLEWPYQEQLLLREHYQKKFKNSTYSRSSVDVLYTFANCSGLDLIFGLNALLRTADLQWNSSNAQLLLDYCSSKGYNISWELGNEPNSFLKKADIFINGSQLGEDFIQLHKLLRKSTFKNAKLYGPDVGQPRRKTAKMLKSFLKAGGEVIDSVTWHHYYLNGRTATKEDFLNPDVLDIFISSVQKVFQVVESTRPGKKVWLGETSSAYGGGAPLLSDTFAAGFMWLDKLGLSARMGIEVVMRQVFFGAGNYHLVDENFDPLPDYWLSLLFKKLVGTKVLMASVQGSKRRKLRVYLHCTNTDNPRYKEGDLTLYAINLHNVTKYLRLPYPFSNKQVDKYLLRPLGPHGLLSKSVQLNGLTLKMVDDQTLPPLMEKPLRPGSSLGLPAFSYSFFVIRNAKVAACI


Columns and labels:
[1] = biological target: T1, murine cell surface heparanase on B16F10 AP3 murine melanoma cells (murine); assay: FACS on B16F10 AP3 cells, antibody 5 or 10 µg per ml, AlexaFluor 488 anti-human IgG
[2] = biological target: T2, human cell surface heparanase on human tumour cells (human); assay: FACS on HT1080 and HCT116 cells, antibody 5 or 10 µg per ml, AlexaFluor 488 anti-human IgG
[3] = biological target: T2, human cell surface heparanase on human tumour cells (human); assay: FACS on HT1080 human fibrosarcoma cells, AlexaFluor 488 anti-human IgG, % gated events [panel HT1080 cells]
[4] = biological target: T2, human cell surface heparanase on human tumour cells (human); assay: FACS on HCT116 human colorectal tumour cells, AlexaFluor 488 anti-human IgG, % gated events [panel HCT116 cells]
[5] = biological target: T1, murine cell surface heparanase on B16F10 AP3 murine melanoma cells (murine); assay: FACS on B16F10 AP3 murine melanoma cells, AlexaFluor 488 anti-human IgG, % gated events [panel B16F10 AP3]

binding [1]	binding [2]	binding [3]	binding [4]	binding [5]	Binder
binds	binds	binds	binds		monoclonal antibody 10E9.1 (antibody, V domains shown) VH: QVQLVQSGAEVKKPGASVKVSCKVSGYSLTELSIHWVRQAPGKGLEWMGGFDPEDGEIIFAQKFQGRVTLTEDISLDTAYMEVSSLRSEDTAVYYCATEGHDSGDYVGYYYYGLDVWGQGTTVTVSS VL: DIQMTQSPSSLSASVGDRVTITCRASQDIRNFLAWYQQKPGKLPKLLIYAASTLQSGVPSRFSGSGSGTDFTLTISSLQPEDVASYYCQSHNSVPFTFGPGTKVDIR
				binds	10E9.2 (antibody, V domains shown) VH: QVQLVQSGAEVKKPGASVKVSCKVSGYSLTELSIHWVRQAPGKGLEWMGGFDPEDGEIIFAQKFQGRVTLTEDISLDTAYMEVSSLRSEDTAVYYCATEGHDSGDYVGYYYYGLDVWGQGTTVTVSS VL: DIQMTQSPSSLSASVGDRVTITCRASQDIRNFLAWYQQKPGKLPKLLIYAASTLQSGVPSRFSGSGSGTDFTLTISSLQPEDVASYYCQSHNSVPFTFGPGTKVDIR
